Test results from the supplement of paper PMC9015667.
Structures can show the parent of a compound that is named as a salt. The list shows a part of the results. Many values rest on one well or one pass, so single values are uncertain.

Columns and labels:
Experiment in all cases: reduction in cell viability relative to untreated/vehicle; higher = more growth inhibition
Conditions in all cases: 200 nM; 72 h
M229P = system: M229P (parental melanoma line)
M229R = system: M229R (matched melanoma line resistant to BRAF inhibitors)
M238P = system: M238P (parental melanoma line)
M238R = system: M238R (matched melanoma line resistant to BRAF inhibitors)
M249P = system: M249P (parental melanoma line)
M249R = system: M249R (matched melanoma line resistant to BRAF inhibitors)
UACC62P = system: UACC62P (parental melanoma line)
UACC62R = system: UACC62R (matched melanoma line resistant to BRAF inhibitors)

Row | Structure (SMILES) | reduction in cell viability (M229P) [%] | reduction in cell viability (M229R) [%] | reduction in cell viability (M238P) [%] | reduction in cell viability (M238R) [%] | reduction in cell viability (M249P) [%] | reduction in cell viability (M249R) [%] | reduction in cell viability (UACC62P) [%] | reduction in cell viability (UACC62R) [%]
1 | Clc1ccc(COC(Cn2ccnc2)c2ccc(Cl)cc2Cl)cc1 (stereo unspecified) [Econazole nitrate] | < 0 | < 0 | < 0 | < 0 | < 0 | < 0 | < 0 | < 0
2 | CCC(=O)O[C@]1(C(=O)CCl)[C@@H](C)C[C@H]2[C@@H]3CCC4=CC(=O)C=C[C@]4(C)[C@@]3(F)[C@@H](O)C[C@@]21C [Clobetasol propionate] | < 0 | < 0 | < 0 | < 0 | < 0 | < 0 | < 0 | < 0
3 | CCCn1c(=O)c2[nH]c(-c3cnn(Cc4cccc(C(F)(F)F)c4)c3)nc2n(CC)c1=O | < 0 | 6.72 | < 0 | < 0 | < 0 | 10.6 | 3.24 | < 0
4 | CCOC(=O)N1CCC(=C2c3ccc(Cl)cc3CCc3cccnc32)CC1 [Loratadine] | < 0 | < 0 | < 0 | < 0 | < 0 | < 0 | < 0 | < 0
5 | C[C@H]1[C@H](C)CC[C@]2(C(=O)O)CC[C@]3(C)C(=CC[C@@H]4[C@@]5(C)CC[C@H](O)C(C)(C)[C@@H]5CC[C@]43C)[C@H]12 [Ursolic acid] | < 0 | < 0 | < 0 | < 0 | < 0 | < 0 | < 0 | < 0
6 | C[C@H](Cc1cc2c(c(C(N)=O)c1)N(CCCO)CC2)NCCOc1ccccc1OCC(F)(F)F [Silodosin] | < 0 | < 0 | < 0 | < 0 | < 0 | < 0 | < 0 | < 0
7 | CCCCOc1c(C(=O)c2c(F)cc(C)cc2F)c[nH]c2nncc1-2 | < 0 | < 0 | < 0 | < 0 | < 0 | < 0 | < 0 | < 0
8 | CCOC(=O)c1c(CSc2ccccc2)n(C)c2cc(Br)c(O)c(CN(C)C)c12 [Arbidol] | < 0 | < 0 | < 0 | < 0 | < 0 | < 0 | < 0 | < 0
9 | COc1ccc(C[C@@H](C)[C@@H](C)Cc2ccc(OC)c(OC)c2)cc1OC [Terameprocol] | < 0 | < 0 | < 0 | < 0 | < 0 | 16 | 8.48 | < 0
10 | COc1c2occc2cc2ccc(=O)oc12 [Methoxsalen] | < 0 | < 0 | < 0 | < 0 | < 0 | < 0 | 1.35 | < 0
11 | C=CCNc1c(O)cc2c(O)c1C[C@@H](C)C[C@H](OC)[C@H](O)[C@@H](C)/C=C(\C)[C@H](OC(N)=O)[C@@H](OC)/C=C\C=C(/C)C(=O)N2 [Retaspimycin] | 3.85 | 10.4 | 56 | 58.6 | 18.2 | 13.1 | 74.2 | 76
12 | Nc1nc(N)c2nc(CNc3ccc(C(=O)N[C@@H](CCC(=O)O)C(=O)O)cc3)cnc2n1 [Aminopterin] | < 0 | < 0 | < 0 | < 0 | < 0 | < 0 | < 0 | < 0
13 | CN1CCC(COc2cnc(-c3cccc(Cn4nc(-c5cccc(C#N)c5)ccc4=O)c3)nc2)CC1 | < 0 | < 0 | < 0 | < 0 | < 0 | < 0 | < 0 | < 0
14 | CNC(=O)c1cc(Oc2ccc(NC(=O)Nc3ccc(Cl)c(C(F)(F)F)c3)c(F)c2)ccn1 [Regorafenib (BAY 73-4506)] | < 0 | < 0 | < 0 | < 0 | < 0 | < 0 | < 0 | < 0
15 | Cn1cc(-c2ccc3ncc(Cc4ccc5ncccc5c4)n3n2)cn1 | < 0 | < 0 | < 0 | < 0 | < 0 | < 0 | 12.6 | < 0
16 | CC(C)(C)c1nc2c3cc[nH]c(=O)c3c3cc(F)ccc3c2[nH]1 [Merck 5] | < 0 | < 0 | < 0 | < 0 | 2.9 | < 0 | 12.8 | < 0
17 | CC(C)(O)CC(=O)NCCn1ccc2ncnc(Nc3ccc(Oc4cccc(C(F)(F)F)c4)c(Cl)c3)c21 | < 0 | < 0 | < 0 | < 0 | < 0 | < 0 | < 0 | < 0
18 | O=C(NC1CCOCC1)c1ccc(-c2cc(-c3c[nH]nc3-c3ccccn3)ccn2)cc1 | < 0 | < 0 | < 0 | < 0 | < 0 | < 0 | < 0 | < 0
19 | CCCCOc1ccc(C(=O)Nc2ccc(F)cc2F)cc1 | < 0 | < 0 | < 0 | < 0 | < 0 | < 0 | < 0 | < 0

Whole records from above.
CCCCOc1c(C(=O)c2c(F)cc(C)cc2F)c[nH]c2nncc1-2 is listed as reduction in cell viability (M229P) [%]: < 0; reduction in cell viability (M229R) [%]: < 0; reduction in cell viability (M238P) [%]: < 0; reduction in cell viability (M238R) [%]: < 0; reduction in cell viability (M249P) [%]: < 0; reduction in cell viability (M249R) [%]: < 0; reduction in cell viability (UACC62P) [%]: < 0; reduction in cell viability (UACC62R) [%]: < 0
COc1c2occc2cc2ccc(=O)oc12 [Methoxsalen] is listed as reduction in cell viability (M229P) [%]: < 0; reduction in cell viability (M229R) [%]: < 0; reduction in cell viability (M238P) [%]: < 0; reduction in cell viability (M238R) [%]: < 0; reduction in cell viability (M249P) [%]: < 0; reduction in cell viability (M249R) [%]: < 0; reduction in cell viability (UACC62P) [%]: 1.35; reduction in cell viability (UACC62R) [%]: < 0
CCCn1c(=O)c2[nH]c(-c3cnn(Cc4cccc(C(F)(F)F)c4)c3)nc2n(CC)c1=O is listed as reduction in cell viability (M229P) [%]: < 0; reduction in cell viability (M229R) [%]: 6.72; reduction in cell viability (M238P) [%]: < 0; reduction in cell viability (M238R) [%]: < 0; reduction in cell viability (M249P) [%]: < 0; reduction in cell viability (M249R) [%]: 10.6; reduction in cell viability (UACC62P) [%]: 3.24; reduction in cell viability (UACC62R) [%]: < 0

(next part)

Row | Structure (SMILES) | reduction in cell viability (M229P) [%] | reduction in cell viability (M229R) [%] | reduction in cell viability (M238P) [%] | reduction in cell viability (M238R) [%] | reduction in cell viability (M249P) [%] | reduction in cell viability (M249R) [%] | reduction in cell viability (UACC62P) [%] | reduction in cell viability (UACC62R) [%]
20 | O=c1cc(-c2ccc(O)cc2)oc2cc(O)cc(O)c12 [Apigenin] | < 0 | < 0 | < 0 | < 0 | < 0 | < 0 | < 0 | < 0
21 | O=C(Nc1ccccc1Br)N[C@@H]1CCN(c2ccc(C(F)(F)F)cn2)C1 | < 0 | < 0 | < 0 | < 0 | < 0 | < 0 | 6.05 | < 0
22 | COc1c(Cl)cc2c([nH]c3cnccc32)c1NC(=O)c1cccnc1C | < 0 | < 0 | < 0 | < 0 | < 0 | < 0 | 0.68 | < 0
23 | C[C@@H](N)c1ccc(C(=O)Nc2ccnc3[nH]ccc23)cc1 | < 0 | 10.7 | < 0 | < 0 | < 0 | < 0 | < 0 | < 0
24 | CCCOc1ccc(C(=O)OCCN(CC)CC)cc1N [Proparacaine] | < 0 | < 0 | < 0 | < 0 | < 0 | < 0 | 3.07 | < 0
25 | CC(C)CCN1c2nc(Nc3cc(F)c(O)c(F)c3)ncc2N(C)C(=O)C1C (stereo unspecified) | < 0 | < 0 | < 0 | < 0 | < 0 | < 0 | < 0 | < 0
26 | Cc1coc2c1C(=O)C(=O)c1c-2ccc2c1CCCC2(C)C [Tanshinone IIA] | < 0 | < 0 | < 0 | < 0 | < 0 | 7.12 | < 0 | < 0
27 | COc1ncc(-c2ccc3nccc(-c4ccnnc4)c3c2)cc1NS(=O)(=O)c1ccc(F)cc1F | 69.1 | 53.3 | 55.2 | 46.4 | 76.5 | 63.5 | 72 | 75.8
28 | Cn1cc(CNCC2CCN(c3ncc(C(=O)NO)cn3)CC2)c2ccccc21 [Quisinostat hydrochloride] | 80.8 | 69.8 | 80 | 74.9 | 84.4 | 82.6 | 83.6 | 79
29 | Cc1c(O)cccc1C(=O)N[C@@H](CSc1ccccc1)[C@H](O)CN1C[C@H]2CCCC[C@H]2C[C@H]1C(=O)NC(C)(C)C [Viracept] | < 0 | < 0 | < 0 | < 0 | < 0 | < 0 | < 0 | < 0
30 | COc1cc(Nc2c(C#N)cnc3cc(OCCCN4CCN(C)CC4)c(OC)cc23)c(Cl)cc1Cl [Bosutinib] | < 0 | < 0 | 9.33 | < 0 | 32.6 | 11.1 | 26.2 | < 0
31 | O=C1CCc2cc(OCCCCc3nnnn3C3CCCCC3)ccc2N1 [Cilostazol] | < 0 | 19.2 | < 0 | < 0 | < 0 | < 0 | < 0 | < 0
32 | Nc1nnc(-c2cccc(Cl)c2Cl)c(N)n1 [Lamotrigine] | < 0 | < 0 | < 0 | < 0 | < 0 | < 0 | < 0 | < 0
33 | CN(C)c1cc(NC(=O)CNC(C)(C)C)c(O)c2c1C[C@H]1C[C@H]3[C@H](N(C)C)C(O)=C(C(N)=O)C(=O)[C@@]3(O)C(O)=C1C2=O [Tigecycline] | < 0 | < 0 | < 0 | < 0 | < 0 | < 0 | < 0 | < 0
34 | O=C(O)c1cn(-c2ccc(F)cc2)c2cc(N3CCNCC3)c(F)cc2c1=O [Sarafloxacin hydrochloride] | < 0 | < 0 | < 0 | < 0 | < 0 | < 0 | < 0 | < 0
35 | CC(C)(C)NC(=O)Nc1cccc(Nc2ncc(F)c(NC(C)(C)CO)n2)c1 [Bayer-18] | 3.26 | < 0 | < 0 | < 0 | < 0 | < 0 | < 0 | < 0
36 | O=c1cc(-c2ccc(O)c(O)c2)oc2cc(O)cc(O)c12 [Luteolin] | < 0 | < 0 | < 0 | < 0 | < 0 | < 0 | < 0 | < 0
37 | C#Cc1cccc(Nc2ncnc3cc(OCCOC)c(OCCOC)cc23)c1 [Erlotinib hydrochloride] | < 0 | < 0 | < 0 | < 0 | < 0 | < 0 | < 0 | < 0
